Measurements as given in US20190262453A1, “DESIGN AND COMPOSITION OF CELL-STABILIZED PHARMACEUTICAL FORMULATIONS” (THE REGENTS OF THE UNIVERSITY OF MICHIGAN, priority 2016, published 2019).
Structures can show the parent of a compound that is named as a salt. At least one read-out could not be matched to a standard name with certainty.

Assay: pH-dependent solubility study of CFZ-HCl (Flynn approach)
Type: physicochemical
Conditions: from pH-solubility profile, 25° C.
Description: Solubility Measurement Using the Flynn Approach. […] Mili-Q water (15 mL) was added to each vial ensuring that CFZ-HCl crystals were in great excess. Moreover, an appropriate amount of 0.1 M NaOH was added to each vial to set the initial equilibration pH measurements as follows: […] The set of sample containing vials was placed on a magnetic stirrer plate in a 25° C. water bath. […] The pH of the filtered sample was determine by Denver Instrument UltraBasic pH meter (Denver Instrument, Bohemia, N.Y.), after which the sample was subjected to HPLC analysis (Waters Alliance, Separations Module 2695) to determine the total solubility of the drug at the measured pH. […] The retention time for CFZ was determined to be at 4.75 min. […] Thus, in order to fit the experimental solubility-pH data curve of CFZ-HC, it was determined which one of the aforementioned solubility-pH relationships (equation 8 vs. equation 9) to use. […] Then, a value, say “y”, from the list of the computed [CFZH^+] values was set equal [CFZH+]S. By substituting “y' in place of [CFZH+]S, total solubility at the different pH values was calculated using the solubility-pH equation where the intrinsic salt is the primary solid species (equation 15). […]

CC(C)/N=c1\cc2n(-c3ccc(Cl)cc3)c3ccccc3nc-2cc1Nc1ccc(Cl)cc1 [CFZ-HCl, Clofazimine Hydrochloride]
Ksp (salt solubility product): 332.3±3.71 μM2
